Reference: PMC10163288
The list shows a part of the results.

B1: il2ra_site1_1z92_normal_mot_HHH_b2_06478_af2_000000093_0001_42_55_H_._707acc9d051fe3a4acad5ad22db0e630_0001_1_af2_0001_0000300018_0000001_0_af2pred_0001_af2pred … (protein)
chain: TEEDLEITREFAGGDPEKILKVLERAARDAGLLSPEELKRLEEEIREAIEKNDPRVEELLKELAN
B2: il2ra_site2_2erj_sap_23_mot_c2bf78bdce995293a161f7082e24b401_0001_000000177_0001_37_51_H_._b683b9da3abebe05867c2ae609ec11aa_0001_1_0001_0000300012_0000001_0_000 … (protein)
chain: SSSSSEVEEEVERLLEEARKIPDEEEAWKVVAEAAFLAARNNDDELLKEIMEIAQELLSKSSSSS
B3: il2ra_site1_1z92_normal_mot_934a834d9b8b770824478def2ff2f329_0001_af2_000000088_0001_15_30_H_._62303bca1dd225ec3edff4317a74685f_0001_af2_0001_0000400021_0000001 … (protein)
chain: SLLEELEELLKKLNTPAARALIRLLRRAIEEGQLDPEIILRDLHRAAEFLNDPEVVEVIEEILRK
B4: il2ra_site1_3nfp_normal_mot_e80b558ee5422d85aa46efdc370d0602_0001_af2_000000114_0001_54_65_H_._HEEHE_2247_0002_0000400019_0000001_0_af2pred_0001_af2pred (protein)
chain: DRQEILQEDAELISKVAGVTSVHVEVENGHVTVTVEADNRRARALLRILREAAKIAGLEVEITIE
B5: il2ra_site1_2b5i_sap_11_mot_HHH_b1_05017_af2_000000115_0001_1_18_H_._HHH_b1_00710_af2_0001_0000500014_0000001_0_0001 (protein)
chain: SSSSDEIDEKVQELFREASELWRNGNPEEAEKVVEEALRIAEEGGDENLVRQLRRMLEFLRSSSS
B6: il2ra_site1_1z92_sap_11_mot_HHH_b1_00499_000000281_0001_1_17_H_._HHH_b1_06817_af2_0001_0000300040_0000001_0_0001 (protein)
chain: SSSSDRAREWAEKLARAALRLLKLTGNPRIRERIEMLLRDLRMNGNPEAVEEIEKILEELRSSSS
B7: il2ra_site1_2b5i_normal_mot_0e5a94e4a5addaac739760efb25f0f5d_0001_000000289_0001_18_32_H_._78af2605e42daec4205f2e2222766fb7_0001_af2_0001_0000300010_0000001_1_a … (protein)
chain: SLEKEIEDLANEIEDRELRTLVVDILYRISLLPDPEERERLLEELLEALKSNDRERLEELRERAK
B8: il2ra_site1_1z92_sap_17_mot_0152819cca26c81f8eead0111e16a660_0001_000000247_0001_36_50_H_._HHH_b1_04373_0001_0000400037_0000001_0_0001_af2pred_0001_af2pred (protein)
chain: SSSSSSDEEIEEIVKELVERFNLSEEEEKILERDAKQALEQGFSEKSIKRALRAAAERLSSSSSS
B9: il2ra_site2_3nfp_normal_mot_HHH_b1_06589_000000230_0001_37_50_H_._HHH_b1_08566_0001_0000300024_0000001_0_af2pred_0001_1_af2pred_swapped (protein)
chain: SSSSDEEEEEIRELIEEARKLLENGNPEEAKKVLEKASRLAIELGDAELFAEIAELLLKVLSSSS
B10: il2ra_site1_3nfp_sap_16_mot_06fb79ff5b0635ea054e4773f75fe636_0001_af2_000000209_0001_53_63_H_._HEEHE_0001_0001_0000200015_0000001_0_0001 (protein)
chain: DQEEIVARFIHHAVKQNSPTLLRKVLEDFERWAGDPEEAKRLFEEYLEEAGLSPEEIERAKELVE
B11: il2ra_site1_2b5i_sap_23_mot_0e5a94e4a5addaac739760efb25f0f5d_0001_000000208_0001_18_32_H_._ems_3hC_1310_0001_0001_0000100003_0000001_0_0001 (protein)
chain: SSSSSEAHERAAEIVDELAEEFGLDSEELNALVRLATRLIWRGVSPEEIEEILEEFARQLSSSSS
B12: il2ra_site1_3nfp_normal_mot_HHH_b1_02721_af2_000000134_0001_39_56_H_._HHH_b2_00677_af2_0001_0000100009_0000001_0 (protein)
chain: SSSSSDTEEAFQLDRELLEALRKGDEELIEELLRELEELAKELNDELAERLVEQFKELLKSSSSS
B13: il2ra_site2_3nfp_sap_17_mot_HHH_b2_00232_000000252_0001_23_39_H_._3c441df7748365c26d0f48519610b406_0001_0001_0000300033_0000001_0_0001 (protein)
chain: SSSSSSTFLFEVVRELAEELGLSEEQLHELVQLAAELSRRGVSLEEIEEILEEVARKLSSSSSSS
B14: il2ra_site1_2b5i_normal_mot_HHH_b2_01684_af2_000000128_0001_1_17_H_._6f78d487b2114cba39c339ce838aa349_0001_1_af2_0001_0000500025_0000001_0_af2pred_dldesign_0_af … (protein)
chain: SEEEELRALAEAAARGDKAALKKLSEIARKADEDPEYREKLERMIEILDELGQPKLAALLRRGLE
B15: il2ra_site2_2erj_sap_18_mot_HHH_b2_00732_af2_000000006_0001_23_40_H_._HHH_b2_05171_af2_0001_0000300019_0000001_0_0001 (protein)
chain: SSSSSLHELYELANRLMHLVHNNDEEEFEELLREAQELAEKFGSDVVKEILERLKELIKGSSSSS
B16: il2ra_site2_3nfp_normal_mot_HHH_b1_06589_000000230_0001_37_50_H_._HHH_b1_07348_af2_0001_0000500014_0000001_0 (protein)
chain: SSSSSDEERERAEELLEEAKQISDPEEFEEVIAEALRLAIEAGDAELYMAIAELSFEFRSSSSSS
B17: il2ra_site1_3nfp_normal_mot_HHH_b2_06725_000000083_0001_1_20_H_._HHH_b2_03844_0001_0000700022_0000001_1_af2pred_0001_af2pred (protein)
chain: SSSSSTSASEKVLRLLEEALHVEDPKEFEELIEEAEELAEENNNPTLERTIEAAHKLHSQSSSSS
B18: il2ra_site1_3nfp_sap_14_mot_HHH_b1_05843_af2_000000150_0001_1_20_H_._HHH_b2_02396_0001_0000300026_0000001_0_0001 (protein)
chain: SSSSTEEEIEELKEELKRVMEKGDFQRAARLIDEIYKLISRADDPELRRELQELLREFQRLSSSS
B19: il2ra_site2_2erj_sap_26_mot_HHH_b2_03469_000000216_0001_20_36_H_._HHH_b1_02176_af2_0001_0000200009_0000001_0_0001 (protein)
chain: SSSSSSLHELYELANRIMHALANNDEEEAEKLIEEAEELIKKLGSDTAREILEWLRREVNSSSSS

target: il2ra, P01589; assay: yeast display titration

Apparent Kd, inactive:
B1 no binding seen
B2 no binding seen
B3 no binding seen
B4 no binding seen
B5 no binding seen
B6 no binding seen
B7 no binding seen
B8 no binding seen
B9 no binding seen
B10 no binding seen
B11 no binding seen
B12 > 802 nM
B13 no binding seen
B14 no binding seen
B15 no binding seen
B16 no binding seen
B17 no binding seen
B18 no binding seen
B19 no binding seen

Two records drawn at random from the list so far:
Apparent Kd, inactive:
B14 no binding seen
B2 no binding seen
